Results on two molecules are retold here after publication PMC8288866, “MKRN3 regulates the epigenetic switch of mammalian puberty via ubiquitination of MBD3” (National Science Review, 2020).

The chains behind the UniProt entries cited, without tags or fusion partners. Residues count along the entry.
UniProt O95983: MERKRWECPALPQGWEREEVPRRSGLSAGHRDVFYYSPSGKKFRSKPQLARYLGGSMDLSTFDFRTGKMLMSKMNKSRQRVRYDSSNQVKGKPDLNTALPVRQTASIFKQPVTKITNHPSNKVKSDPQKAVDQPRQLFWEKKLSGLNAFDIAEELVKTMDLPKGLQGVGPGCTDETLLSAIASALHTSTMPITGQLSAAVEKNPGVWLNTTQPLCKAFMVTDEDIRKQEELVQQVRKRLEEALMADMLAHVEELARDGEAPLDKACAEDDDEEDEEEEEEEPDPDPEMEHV
UniProt Q4JK59, residues 1099-1912: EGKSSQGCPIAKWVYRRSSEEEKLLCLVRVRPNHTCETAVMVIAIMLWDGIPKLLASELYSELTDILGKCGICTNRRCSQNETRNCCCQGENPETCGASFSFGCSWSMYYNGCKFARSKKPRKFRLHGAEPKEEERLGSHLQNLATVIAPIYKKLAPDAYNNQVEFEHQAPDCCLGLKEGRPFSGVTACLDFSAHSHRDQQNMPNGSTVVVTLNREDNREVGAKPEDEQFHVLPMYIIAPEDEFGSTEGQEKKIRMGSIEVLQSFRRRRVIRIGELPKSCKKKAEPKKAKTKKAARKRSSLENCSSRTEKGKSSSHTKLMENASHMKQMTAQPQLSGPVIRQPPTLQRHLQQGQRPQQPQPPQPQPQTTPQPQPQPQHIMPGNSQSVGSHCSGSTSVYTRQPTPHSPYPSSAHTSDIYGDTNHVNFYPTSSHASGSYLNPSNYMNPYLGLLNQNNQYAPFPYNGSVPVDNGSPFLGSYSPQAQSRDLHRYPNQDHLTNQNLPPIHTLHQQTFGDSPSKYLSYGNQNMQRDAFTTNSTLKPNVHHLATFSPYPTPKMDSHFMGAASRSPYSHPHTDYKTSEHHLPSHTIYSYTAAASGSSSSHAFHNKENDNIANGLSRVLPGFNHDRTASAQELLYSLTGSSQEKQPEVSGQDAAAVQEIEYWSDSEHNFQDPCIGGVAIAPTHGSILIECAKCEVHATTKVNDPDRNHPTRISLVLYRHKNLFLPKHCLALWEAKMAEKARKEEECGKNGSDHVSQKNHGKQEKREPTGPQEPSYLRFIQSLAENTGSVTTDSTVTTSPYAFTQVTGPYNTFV

The target of experiment [1] is MBD3 (experiments of Supplementary Fig. 6G-I) (human) (UniProt O95983). Kind of experiment: co-IP; immunoprecipitation assay with truncated TET2 and MBD3 (Supplementary Fig. 6H and I); cells and tags not stated.
Experiment [2] has as its target endogenous MBD3 (human (endogenous in HEK293T)) (UniProt O95983). Kind of experiment: co-IP; endogenous proteins of HEK293T cells; immunoprecipitation with anti-IgG or anti-MBD3, immunoblotting with anti-MKRN3 or anti-MBD3. A general note: A western blot detects proteins with antibodies after separation by electrophoresis.

These are yes or no findings as the source states them, for the method shown. In cells and extracts the contact can be indirect. Some binding calls cover weakened binding; strength is not graded here.

As for “C-terminal region of TET2 (residues 1099–1912) (from UniProt Q4JK59 1099-1912) (domain or fragment)”, in experiment [1], the binding entry is given as “binds”.

B1: endogenous MKRN3 (enzyme, UniProt Q13064 1-507)
chain: MEEPAAPSEAHEAAGAQAGAEAAREGVSGPDLPVCEPSGESAAPDSALPHAARGWAPFPVAPVPAHLRRGGLRPAPASGGGAWPSPLPSRSSGIWTKQIICRYYIHGQCKEGENCRYSHDLSGRKMATEGGVSPPGASAGGGPSTAAHIEPPTQEVAEAPPAASSLSLPVIGSAAERGFFEAERDNADRGAAGGAGVESWADAIEFVPGQPYRGRWVASAPEAPLQSSETERKQMAVGSGLRFCYYASRGVCFRGESCMYLHGDICDMCGLQTLHPMDAAQREEHMRACIEAHEKDMELSFAVQRGMDKVCGICMEVVYEKANPNDRRFGILSNCNHSFCIRCIRRWRSARQFENRIVKSCPQCRVTSELVIPSEFWVEEEEEKQKLIQQYKEAMSNKACRYFAEGRGNCPFGDTCFYKHEYPEGWGDEPPGPGGGSFSAYWHQLVEPVRMGEGNMLYKSIKKELVVLRLASLLFKRFLSLRDELPFSEDQWDLLHYELEEYFNLIL
As for B1, in experiment [2], the binding result is “binds”.
